Our source for the binding values is doi:10.1101/2024.03.15.585069.

These are yes or no findings as the source states them, for the method shown. Binding seen in cells or lysates may run through a third protein. These calls come from enrichment with a bait or labelling near it, and not all partners need be listed. For some assays here: A no says only that the protein was not detected with the bait. Sequences can lack the tags named with a protein.

T1: GSRhino-TAP-tagged ICU11 (INCURVATA11) (Arabidopsis thaliana) (UniProt Q3ED68)
T1 sequence: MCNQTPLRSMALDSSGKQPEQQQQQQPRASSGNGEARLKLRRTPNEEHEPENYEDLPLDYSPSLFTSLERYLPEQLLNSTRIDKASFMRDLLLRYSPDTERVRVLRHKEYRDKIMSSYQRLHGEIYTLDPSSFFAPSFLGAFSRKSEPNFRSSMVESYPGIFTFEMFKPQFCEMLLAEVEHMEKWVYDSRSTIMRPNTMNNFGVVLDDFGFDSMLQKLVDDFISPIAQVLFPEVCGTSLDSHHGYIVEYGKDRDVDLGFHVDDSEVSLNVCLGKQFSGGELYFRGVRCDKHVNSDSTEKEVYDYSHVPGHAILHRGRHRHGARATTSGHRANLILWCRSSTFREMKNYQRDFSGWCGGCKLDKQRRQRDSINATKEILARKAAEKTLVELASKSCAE

T2: GSRhino-TAP-tagged CP2 (CUPULIFORMIS2) (Arabidopsis thaliana) (UniProt P0DO23)
T2 sequence: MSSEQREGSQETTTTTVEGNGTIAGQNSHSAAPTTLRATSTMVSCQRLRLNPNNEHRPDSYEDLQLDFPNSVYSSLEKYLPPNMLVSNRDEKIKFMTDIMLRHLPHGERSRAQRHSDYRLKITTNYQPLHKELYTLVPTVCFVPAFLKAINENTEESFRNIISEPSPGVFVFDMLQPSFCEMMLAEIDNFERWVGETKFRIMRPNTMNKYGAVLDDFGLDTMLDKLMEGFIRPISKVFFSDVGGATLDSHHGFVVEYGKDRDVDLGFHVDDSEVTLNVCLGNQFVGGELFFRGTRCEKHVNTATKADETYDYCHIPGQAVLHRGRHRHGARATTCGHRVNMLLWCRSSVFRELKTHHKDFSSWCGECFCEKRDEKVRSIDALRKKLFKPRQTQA

B1: EMBRYONIC FLOWER 2 (EMF2) (protein, UniProt Q8L6Y4 1-631)
chain: MPGIPLVSRETSSCSRSTEQMCHEDSRLRISEEEEIAAEESLAAYCKPVELYNIIQRRAIRNPLFLQRCLHYKIEAKHKRRIQMTVFLSGAIDAGVQTQKLFPLYILLARLVSPKPVAEYSAVYRFSRACILTGGLGVDGVSQAQANFLLPDMNRLALEAKSGSLAILFISFAGAQNSQFGIDSGKIHSGNIGGHCLWSKIPLQSLYASWQKSPNMDLGQRVDTVSLVEMQPCFIKLKSMSEEKCVSIQVPSNPLTSSSPQQVQVTISAEEVGSTEKSPYSSFSYNDISSSSLLQIIRLRTGNVVFNYRYYNNKLQKTEVTEDFSCPFCLVKCASFKGLRYHLPSTHDLLNFEFWVTEEFQAVNVSLKTETMISKVNEDDVDPKQQTFFFSSKKFRRRRQKSQVRSSRQGPHLGLGCEVLDKTDDAHSVRSEKSRIPPGKHYERIGGAESGQRVPPGTSPADVQSCGDPDYVQSIAGSTMLQFAKTRKISIERSDLRNRSLLQKRQFFHSHRAQPMALEQVLSDRDSEDEVDDDVADFEDRRMLDDFVDVTKDEKQMMHMWNSFVRKQRVLADGHIPWACEAFSRLHGPIMVRTPHLIWCWRVFMVKLWNHGLLDARTMNNCNTFLEQLQI
B2: EMBRYONIC FLOWER 1 (EMF1) (protein, UniProt Q9LYD9 1-1096)
chain: MGSSIKINSISIDLAGAANEIDMVKCDHFSMRGFVAETRERDLRKCWPFSEESVSLVDQQSYTLPTLSVPKFRWWHCMSCIKDIDAHGPKDCGLHSNSKAIGNSSVIESKSKFNSLTIIDHEKEKKTDIADNAIEEKVGVNCENDDQTATTFLKKARGRPMGASNVRSKSRKLVSPEQVGNNRSKEKLNKPSMDISSWKEKQNVDQAVTTFGSSEIAGVVEDTPPKATKNHKGIRGLMECDNGSSESINLAMSGLQRRKSRKVRLLSELLGNTKTSGGSNIRKEESALKKESVRGRKRKLLPENNYVSRILSTMGATSENASKSCDSDQGNSESTDSGFDRTPFKGKQRNRRFQVVDEFVPSLPCETSQEGIKEHDADPSKRSTPAHSLFTGNDSVPCPPGTQRTERKLSLPKKKTKKPVIDNGKSTVISFSNGIDGSQVNSHTGPSMNTVSQTRDLLNGKRVGGLFDNRLASDGYFRKYLSQVNDKPITSLHLQDNDYVRSRDAEPNCLRDFSSSSKSSSGGWLRTGVDIVDFRNNNHNTNRSSFSNLKLRYPPSSTEVADLSRVLQKDASGADRKGKTVMVQEHHGAPRSQSHDRKETTTEEQNNDDIPMEIVELMAKNQYERCLPDKEEDVSNKQPSQETAHKSKNALLIDLNETYDNGISLEDNNTSRPPKPCSSNARREEHFPMGRQQNSHDFFPISQPYVPSPFGIFPPTQENRASSIRFSGHNCQWLGNLPTVGNQNPSPSSFRVLRACDTCQSVPNQYREASHPIWPSSMIPPQSQYKPVSLNINQSTNPGTLSQASNNENTWNLNFVAANGKQKCGPNPEFSFGCKHAAGVSSSSSRPIDNFSSESSIPALHLLSLLDPRLRSTTPADQHGNTKFTKRHFPPANQSKEFIELQTGDSSKSAYSTKQIPFDLYSKRFTQEPSRKSFPITPPIGTSSLSFQNASWSPHHQEKKTKRKDTFAPVYNTHEKPVFASSNDQAKFQLLGASNSMMLPLKFHMTDKEKKQKRKAESCNNNASAGPVKNSSGPIVCSVNRNPADFTIPEPGNVYMLTGEHLKVRKRTTFKKKPAVCKQDAMKQTKKPVCPPTQNA
B3: CUPULIFORMIS2 (CP2), endogenous (protein, UniProt P0DO23 1-394)
chain: MSSEQREGSQETTTTTVEGNGTIAGQNSHSAAPTTLRATSTMVSCQRLRLNPNNEHRPDSYEDLQLDFPNSVYSSLEKYLPPNMLVSNRDEKIKFMTDIMLRHLPHGERSRAQRHSDYRLKITTNYQPLHKELYTLVPTVCFVPAFLKAINENTEESFRNIISEPSPGVFVFDMLQPSFCEMMLAEIDNFERWVGETKFRIMRPNTMNKYGAVLDDFGLDTMLDKLMEGFIRPISKVFFSDVGGATLDSHHGFVVEYGKDRDVDLGFHVDDSEVTLNVCLGNQFVGGELFFRGTRCEKHVNTATKADETYDYCHIPGQAVLHRGRHRHGARATTCGHRVNMLLWCRSSVFRELKTHHKDFSSWCGECFCEKRDEKVRSIDALRKKLFKPRQTQA
B4: FERTILIZATION-… ENDOSPERM (FIE) (protein, UniProt Q9LT47 1-369)
chain: MSKITLGNESIVGSLTPSNKKSYKVTNRIQEGKKPLYAVVFNFLDARFFDVFVTAGGNRITLYNCLGDGAISALQSYADEDKEESFYTVSWACGVNGNPYVAAGGVKGIIRVIDVNSETIHKSLVGHGDSVNEIRTQPLKPQLVITASKDESVRLWNVETGICILIFAGAGGHRYEVLSVDFHPSDIYRFASCGMDTTIKIWSMKEFWTYVEKSFTWTDDPSKFPTKFVQFPVFTASIHTNYVDCNRWFGDFILSKSVDNEILLWEPQLKENSPGEGASDVLLRYPVPMCDIWFIKFSCDLHLSSVAIGNQEGKVYVWDLKSCPPVLITKLSHNQSKSVIRQTAMSVDGSTILACCEDGTIWRWDVITK
B5: TRB3, endogenous (protein, UniProt Q9M2X3 1-295)
chain: MGAPKLKWTPEEETALKAGVLKHGTGKWRTILSDPVYSTILKSRSNVDLKDKWRNISVTALWGSRKKAKLALKRTPLSGSRQDDNATAITIVSLANGDVGGQQIDAPSPPAGSCEPPRPSTSVDKIILEAITSLKRPFGPDGKSILMYIEENFKMQPDMKRLVTSRLKYLTNVGTLVKKKHKYRISQNYMAEGEGQRSPQLLLEGNKENTPKPEENGVKNLTKSQVGGEVMIMGMTEKEAAAAAARAVAEAEFAMAEAEEAAREADKAEAEAEAAHIFAKAAMKAVKYRMHSQTR
B6: TELOMERE REPEAT BINDING 1 (TRB1), endogenous (protein, UniProt Q8VWK4 1-300)
chain: MGAPKQKWTQEEESALKSGVIKHGPGKWRTILKDPEFSGVLYLRSNVDLKDKWRNMSVMANGWGSREKSRLAVKRTFSLPKQEENSLALTNSLQSDEENVDATSGLQVSSNPPPRRPNVRLDSLIMEAIATLKEPGGCNKTTIGAYIEDQYHAPPDFKRLLSTKLKYLTSCGKLVKVKRKYRIPNSTPLSSHRRKGLGVFGGKQRTSSLPSPKTDIDEVNFQTRSQIDTEIARMKSMNVHEAAAVAAQAVAEAEAAMAEAEEAAKEAEAAEAEAEAAQAFAEEASKTLKGRNICKMMIRA
B7: SWINGER (SWN), endogenous (protein, UniProt Q9ZSM8 1-856)
chain: MVTDDSNSSGRIKSHVDDDDDGEEEEDRLEGLENRLSELKRKIQGERVRSIKEKFEANRKKVDAHVSPFSSAASSRATAEDNGNSNMLSSRMRMPLCKLNGFSHGVGDRDYVPTKDVISASVKLPIAERIPPYTTWIFLDRNQRMAEDQSVVGRRQIYYEQHGGETLICSDSEEEPEPEEEKREFSEGEDSIIWLIGQEYGMGEEVQDALCQLLSVDASDILERYNELKLKDKQNTEEFSNSGFKLGISLEKGLGAALDSFDNLFCRRCLVFDCRLHGCSQPLISASEKQPYWSDYEGDRKPCSKHCYLQLKAVREVPETCSNFASKAEEKASEEECSKAVSSDVPHAAASGVSLQVEKTDIGIKNVDSSSGVEQEHGIRGKREVPILKDSNDLPNLSNKKQKTAASDTKMSFVNSVPSLDQALDSTKGDQGGTTDNKVNRDSEADAKEVGEPIPDNSVHDGGSSICQPHHGSGNGAIIIAEMSETSRPSTEWNPIEKDLYLKGVEIFGRNSCLIARNLLSGLKTCLDVSNYMRENEVSVFRRSSTPNLLLDDGRTDPGNDNDEVPPRTRLFRRKGKTRKLKYSTKSAGHPSVWKRIAGGKNQSCKQYTPCGCLSMCGKDCPCLTNETCCEKYCGCSKSCKNRFRGCHCAKSQCRSRQCPCFAAGRECDPDVCRNCWVSCGDGSLGEAPRRGEGQCGNMRLLLRQQQRILLGKSDVAGWGAFLKNSVSKNEYLGEYTGELISHHEADKRGKIYDRANSSFLFDLNDQYVLDAQRKGDKLKFANHSAKPNCYAKVMFVAGDHRVGIFANERIEASEELFYDYRYGPDQAPVWARKPEGSKKDDSAITHRRARKHQSH
B8: INCREASE IN BONSAI …ON 1 (IBM1) (protein, UniProt Q9SSE9 1-1027)
chain: MDSVEEEGVVRVEEENGRGGLRRHRRVSTKLANYVDPPTDDEEDGGPKRKGKRGGNRAPKKTPKKDEEMQKNEIDEANRVTGLVKEKRAATKILNRKDSIIEVGEASGSMPKEVKGIRIGKRKGEIDGEIPTKPGKKPKTTVDPRIIGYRPDNMCHQCQKSDRIVERCQTCNSKRYCHPCLDTWYPLIAKEDVAKKCMFCSSTCNCRACLRLDTKLKGINSNLIVSEEEKVQASKFILQSLLPHLKGINDEQVAEKEVEAKIYGLKFEEVRPQDAKAFPDERLYCDICKTSIYDLHRNCKSCSFDICLSCCLEIRNGKALACKEDVSWNYINRGLEYEHGQEGKVIEKPANKLDDKLKDKLDGKPDDKPKGKPKGRPKGKPDDKPKGKLKGKQDDKPDDKPDEKPVNTDHMKYPSLWKANEAGIITCCCGAGELVLKRLLPDGWISELVNRVEKTAEAGELLNLPETVLERCPCSNSDRHIDIDSCNLLKAACREGSEDNYLYSPSVWDVQQDDLKHFQHHWVKGEPVIVRNVLEATSGLSWEPMVMHRACRQISHVQHGSLKDVVAVDCLDFCEVKVNLHEFFTGYTDGRYDRMGWPLVLKLKDWPPAKVFKDNLPRHAEEFLCSLPLKHYTHPVNGPLNLAVKLPQNCLKPDMGPKTYVASGFAQELGRGDSVTKLHCDMSDAVNILTHISEVPNMQPGIGNLKKKHAEQDLKELYSSVANKEEMMEILENSRQQVQNVETDDGALWDIFRREDIPKLESYIEKHHKEFRHLYCCPVSQVVHPIHDQNFYLTRYHIMKLKEEYGIEPWTFNQKLGDAVLIPVGCPHQVRNLKSCNKVALDFVSPENVSECLRLTKQYRLLPPNHFAKEDKLGVKKMIVHAVDKALRDLSGEKSPEPEEKKQNMRGPKKGAAKAVAKALKDLSPSEKKSSEAAEEEISNGIVNAIDKGLKDLPPSEEKSSEAKVEISNGIVSAMDKDLEHISSSEKKSTEEEGVKRPNIVRTYERRKKLGSEVTNAYIDRLEMEKM

For the first experiment, the target named is T1, GSRhino-TAP-tagged ICU11 (INCURVATA11) (Arabidopsis thaliana). Put plainly: affinity purification with mass spectrometry.
Regarding B1, the binding entry is “binds”.

As for B2, the binding entry is “binds”.

For the molecule B3, the binding entry is on record as “no binding”.

For the molecule B4, the binding entry is “binds”.

Regarding B5, the binding entry is “binds”.

Take B6: the binding result is given as “binds”.

Take B7: the binding entry is recorded as “binds”.

The next experiment deals with T2, GSRhino-TAP-tagged CP2 (CUPULIFORMIS2) (Arabidopsis thaliana). Put plainly: affinity purification with mass spectrometry.
On to B8, for which the binding result is “binds”.
